Data taken from the supplement of paper PMC12819154, “High-throughput peptide-centric local stability assay extends protein–ligand identification to membrane proteins, tissues and bacteria” (Nature Structural & Molecular Biology, 2025).
This is one part of the list. Most entries show no effect beyond the scatter of the controls.

Amino acid sequences for entries named in this document (tags omitted). A change or cut given only in a name is not applied to a line headed by its entry.
UniProt Q9H0U9: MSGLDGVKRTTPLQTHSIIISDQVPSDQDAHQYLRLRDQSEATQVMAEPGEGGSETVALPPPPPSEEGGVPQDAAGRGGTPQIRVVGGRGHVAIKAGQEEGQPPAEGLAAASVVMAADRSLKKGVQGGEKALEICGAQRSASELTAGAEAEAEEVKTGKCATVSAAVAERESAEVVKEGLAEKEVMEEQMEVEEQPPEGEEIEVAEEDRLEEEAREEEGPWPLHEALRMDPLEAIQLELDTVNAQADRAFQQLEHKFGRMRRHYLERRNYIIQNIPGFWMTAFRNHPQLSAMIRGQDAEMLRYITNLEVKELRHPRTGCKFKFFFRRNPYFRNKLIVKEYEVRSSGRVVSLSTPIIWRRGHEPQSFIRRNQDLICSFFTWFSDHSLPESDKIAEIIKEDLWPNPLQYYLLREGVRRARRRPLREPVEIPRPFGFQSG
UniProt Q9C0B7: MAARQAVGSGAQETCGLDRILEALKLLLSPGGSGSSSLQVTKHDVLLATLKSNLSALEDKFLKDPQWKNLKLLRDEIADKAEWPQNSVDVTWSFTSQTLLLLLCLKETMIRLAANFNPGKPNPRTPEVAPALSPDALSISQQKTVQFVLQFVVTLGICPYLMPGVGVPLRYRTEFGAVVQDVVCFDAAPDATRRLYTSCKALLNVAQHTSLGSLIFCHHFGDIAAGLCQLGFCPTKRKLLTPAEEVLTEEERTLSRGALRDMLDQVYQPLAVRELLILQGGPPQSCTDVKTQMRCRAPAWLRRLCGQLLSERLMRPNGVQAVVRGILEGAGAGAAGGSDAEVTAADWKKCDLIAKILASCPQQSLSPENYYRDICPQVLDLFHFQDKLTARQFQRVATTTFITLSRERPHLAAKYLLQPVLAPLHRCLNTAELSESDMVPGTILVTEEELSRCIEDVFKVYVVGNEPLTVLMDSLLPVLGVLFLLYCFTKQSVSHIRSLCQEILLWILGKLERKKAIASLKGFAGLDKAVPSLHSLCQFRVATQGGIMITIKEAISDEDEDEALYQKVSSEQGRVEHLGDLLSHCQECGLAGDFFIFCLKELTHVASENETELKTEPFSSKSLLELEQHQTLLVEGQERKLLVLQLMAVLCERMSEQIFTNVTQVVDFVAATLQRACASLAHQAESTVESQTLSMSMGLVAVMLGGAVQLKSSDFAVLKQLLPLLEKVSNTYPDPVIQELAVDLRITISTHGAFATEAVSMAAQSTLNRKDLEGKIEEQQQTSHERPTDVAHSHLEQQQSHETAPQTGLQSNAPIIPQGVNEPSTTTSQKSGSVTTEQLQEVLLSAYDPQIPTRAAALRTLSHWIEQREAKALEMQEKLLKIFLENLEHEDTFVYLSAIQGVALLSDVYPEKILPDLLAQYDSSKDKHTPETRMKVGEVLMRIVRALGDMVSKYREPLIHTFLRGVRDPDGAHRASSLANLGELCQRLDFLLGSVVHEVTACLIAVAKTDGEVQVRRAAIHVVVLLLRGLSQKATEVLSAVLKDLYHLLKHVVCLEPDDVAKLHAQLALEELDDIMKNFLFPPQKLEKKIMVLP
UniProt Q9BVS4: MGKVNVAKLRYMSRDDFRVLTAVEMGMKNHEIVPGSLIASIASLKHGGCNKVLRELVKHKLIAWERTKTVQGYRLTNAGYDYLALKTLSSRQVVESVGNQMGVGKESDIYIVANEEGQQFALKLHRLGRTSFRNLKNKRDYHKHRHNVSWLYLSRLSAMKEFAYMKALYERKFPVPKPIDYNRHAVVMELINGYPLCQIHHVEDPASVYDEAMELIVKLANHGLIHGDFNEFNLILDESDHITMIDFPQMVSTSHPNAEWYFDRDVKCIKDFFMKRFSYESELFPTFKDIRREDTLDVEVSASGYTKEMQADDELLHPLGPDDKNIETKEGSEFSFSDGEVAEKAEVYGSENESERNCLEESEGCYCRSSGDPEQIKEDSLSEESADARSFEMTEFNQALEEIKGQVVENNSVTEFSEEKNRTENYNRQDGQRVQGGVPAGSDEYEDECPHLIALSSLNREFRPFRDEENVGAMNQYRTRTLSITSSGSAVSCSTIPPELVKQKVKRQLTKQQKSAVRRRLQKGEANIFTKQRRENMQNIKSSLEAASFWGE
UniProt Q9BYT8, whole entry, looked up: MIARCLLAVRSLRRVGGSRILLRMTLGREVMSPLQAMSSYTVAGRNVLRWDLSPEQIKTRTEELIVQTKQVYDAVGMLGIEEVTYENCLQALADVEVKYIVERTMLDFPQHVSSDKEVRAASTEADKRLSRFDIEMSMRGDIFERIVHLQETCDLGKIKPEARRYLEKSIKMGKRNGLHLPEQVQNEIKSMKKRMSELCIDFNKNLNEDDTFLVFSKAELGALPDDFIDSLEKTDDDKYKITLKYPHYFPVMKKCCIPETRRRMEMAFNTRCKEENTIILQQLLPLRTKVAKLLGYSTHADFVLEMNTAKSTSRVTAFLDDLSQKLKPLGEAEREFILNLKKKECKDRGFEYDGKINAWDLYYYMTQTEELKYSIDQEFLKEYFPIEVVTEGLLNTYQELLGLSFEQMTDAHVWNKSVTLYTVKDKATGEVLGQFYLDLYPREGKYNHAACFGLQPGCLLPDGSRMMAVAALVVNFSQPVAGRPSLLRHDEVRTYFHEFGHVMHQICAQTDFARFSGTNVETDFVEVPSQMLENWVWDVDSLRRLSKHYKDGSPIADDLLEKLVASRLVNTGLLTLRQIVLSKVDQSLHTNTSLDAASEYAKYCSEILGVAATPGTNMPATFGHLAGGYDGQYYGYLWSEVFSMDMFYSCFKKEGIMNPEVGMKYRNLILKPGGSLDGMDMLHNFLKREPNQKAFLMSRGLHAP
UniProt Q9BVM2: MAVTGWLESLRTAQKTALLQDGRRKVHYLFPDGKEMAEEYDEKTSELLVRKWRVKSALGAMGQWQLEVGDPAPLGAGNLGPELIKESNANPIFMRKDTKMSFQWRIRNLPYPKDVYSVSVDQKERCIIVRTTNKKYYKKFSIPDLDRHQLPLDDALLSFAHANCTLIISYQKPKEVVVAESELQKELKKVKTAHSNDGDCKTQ
UniProt Q9H0W8: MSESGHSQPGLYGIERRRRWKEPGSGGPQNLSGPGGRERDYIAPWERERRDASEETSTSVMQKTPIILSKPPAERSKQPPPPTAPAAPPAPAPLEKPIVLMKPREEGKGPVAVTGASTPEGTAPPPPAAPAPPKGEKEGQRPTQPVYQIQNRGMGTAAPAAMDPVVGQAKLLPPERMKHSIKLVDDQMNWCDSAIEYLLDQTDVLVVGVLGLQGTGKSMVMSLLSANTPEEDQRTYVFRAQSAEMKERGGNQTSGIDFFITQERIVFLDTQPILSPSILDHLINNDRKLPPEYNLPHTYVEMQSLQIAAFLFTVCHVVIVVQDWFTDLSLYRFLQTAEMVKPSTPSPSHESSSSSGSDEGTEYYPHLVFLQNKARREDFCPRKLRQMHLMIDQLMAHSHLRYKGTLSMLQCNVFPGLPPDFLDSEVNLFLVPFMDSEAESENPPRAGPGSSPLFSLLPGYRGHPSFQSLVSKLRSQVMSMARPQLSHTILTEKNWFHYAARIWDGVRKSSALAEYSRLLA
UniProt Q9BZF3: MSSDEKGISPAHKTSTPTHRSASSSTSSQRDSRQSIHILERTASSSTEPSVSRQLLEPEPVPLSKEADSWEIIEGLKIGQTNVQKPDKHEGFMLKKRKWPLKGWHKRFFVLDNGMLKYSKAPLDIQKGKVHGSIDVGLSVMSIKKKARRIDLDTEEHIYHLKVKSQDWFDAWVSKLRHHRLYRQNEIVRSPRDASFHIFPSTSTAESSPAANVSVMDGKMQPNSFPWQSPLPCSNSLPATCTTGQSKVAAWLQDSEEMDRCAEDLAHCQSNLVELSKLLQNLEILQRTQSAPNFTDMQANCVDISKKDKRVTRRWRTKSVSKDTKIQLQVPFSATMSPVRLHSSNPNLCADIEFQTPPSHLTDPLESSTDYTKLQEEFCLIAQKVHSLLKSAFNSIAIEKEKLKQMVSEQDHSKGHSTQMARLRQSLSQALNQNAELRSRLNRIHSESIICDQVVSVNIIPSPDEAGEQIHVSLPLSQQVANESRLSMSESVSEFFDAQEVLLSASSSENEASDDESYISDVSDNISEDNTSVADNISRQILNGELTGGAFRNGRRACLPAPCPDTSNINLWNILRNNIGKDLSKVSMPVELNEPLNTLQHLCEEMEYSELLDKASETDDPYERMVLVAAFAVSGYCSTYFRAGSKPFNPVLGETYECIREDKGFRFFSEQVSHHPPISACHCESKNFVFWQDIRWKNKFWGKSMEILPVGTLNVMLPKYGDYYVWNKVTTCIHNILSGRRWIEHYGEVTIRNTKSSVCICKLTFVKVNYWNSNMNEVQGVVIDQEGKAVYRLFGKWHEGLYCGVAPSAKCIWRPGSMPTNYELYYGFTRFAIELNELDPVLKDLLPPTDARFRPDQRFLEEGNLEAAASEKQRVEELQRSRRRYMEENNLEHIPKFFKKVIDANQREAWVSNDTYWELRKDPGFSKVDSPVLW
UniProt Q9BZF2: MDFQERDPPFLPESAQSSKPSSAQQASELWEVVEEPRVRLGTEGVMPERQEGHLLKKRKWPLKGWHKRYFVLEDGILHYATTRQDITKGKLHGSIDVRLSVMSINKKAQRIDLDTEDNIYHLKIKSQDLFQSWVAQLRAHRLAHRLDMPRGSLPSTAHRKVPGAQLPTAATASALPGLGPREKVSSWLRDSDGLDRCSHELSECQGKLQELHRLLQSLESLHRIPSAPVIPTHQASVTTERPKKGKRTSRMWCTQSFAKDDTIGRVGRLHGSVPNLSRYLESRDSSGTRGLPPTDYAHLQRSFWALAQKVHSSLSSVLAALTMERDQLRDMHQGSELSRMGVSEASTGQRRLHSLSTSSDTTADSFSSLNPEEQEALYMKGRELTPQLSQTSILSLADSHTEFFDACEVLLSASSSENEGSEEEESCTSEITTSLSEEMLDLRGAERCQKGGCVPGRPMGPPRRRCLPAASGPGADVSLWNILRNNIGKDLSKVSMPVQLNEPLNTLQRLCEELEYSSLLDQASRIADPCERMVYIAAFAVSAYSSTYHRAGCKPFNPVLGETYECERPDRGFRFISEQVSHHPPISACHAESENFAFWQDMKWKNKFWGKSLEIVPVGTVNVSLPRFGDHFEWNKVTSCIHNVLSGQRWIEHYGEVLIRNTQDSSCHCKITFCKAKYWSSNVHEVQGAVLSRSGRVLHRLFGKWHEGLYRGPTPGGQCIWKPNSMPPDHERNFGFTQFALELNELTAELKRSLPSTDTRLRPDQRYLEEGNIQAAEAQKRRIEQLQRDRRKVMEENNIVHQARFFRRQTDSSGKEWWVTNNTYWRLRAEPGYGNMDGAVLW
UniProt Q9H0Z9: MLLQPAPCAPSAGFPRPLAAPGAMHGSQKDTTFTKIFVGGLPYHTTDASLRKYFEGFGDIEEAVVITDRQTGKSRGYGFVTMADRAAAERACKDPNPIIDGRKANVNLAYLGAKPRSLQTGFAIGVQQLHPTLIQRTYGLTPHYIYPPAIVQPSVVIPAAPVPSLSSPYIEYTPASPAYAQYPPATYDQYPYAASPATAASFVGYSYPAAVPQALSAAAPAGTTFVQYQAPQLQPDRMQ
UniProt Q9H0R6: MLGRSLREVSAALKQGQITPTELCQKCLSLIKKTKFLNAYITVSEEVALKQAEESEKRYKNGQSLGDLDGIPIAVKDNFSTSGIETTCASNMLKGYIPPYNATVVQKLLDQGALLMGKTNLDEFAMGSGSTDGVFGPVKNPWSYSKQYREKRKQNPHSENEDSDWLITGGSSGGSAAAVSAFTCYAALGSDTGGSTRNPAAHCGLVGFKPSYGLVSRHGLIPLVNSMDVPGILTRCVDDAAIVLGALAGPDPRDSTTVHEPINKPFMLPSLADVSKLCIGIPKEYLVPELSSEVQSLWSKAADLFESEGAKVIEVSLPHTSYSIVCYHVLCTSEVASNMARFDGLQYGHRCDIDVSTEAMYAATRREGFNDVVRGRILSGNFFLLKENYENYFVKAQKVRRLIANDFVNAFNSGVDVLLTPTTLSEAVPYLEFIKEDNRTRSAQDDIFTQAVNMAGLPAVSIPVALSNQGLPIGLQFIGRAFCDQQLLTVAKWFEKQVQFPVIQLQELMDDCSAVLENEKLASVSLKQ
UniProt Q9BWG4: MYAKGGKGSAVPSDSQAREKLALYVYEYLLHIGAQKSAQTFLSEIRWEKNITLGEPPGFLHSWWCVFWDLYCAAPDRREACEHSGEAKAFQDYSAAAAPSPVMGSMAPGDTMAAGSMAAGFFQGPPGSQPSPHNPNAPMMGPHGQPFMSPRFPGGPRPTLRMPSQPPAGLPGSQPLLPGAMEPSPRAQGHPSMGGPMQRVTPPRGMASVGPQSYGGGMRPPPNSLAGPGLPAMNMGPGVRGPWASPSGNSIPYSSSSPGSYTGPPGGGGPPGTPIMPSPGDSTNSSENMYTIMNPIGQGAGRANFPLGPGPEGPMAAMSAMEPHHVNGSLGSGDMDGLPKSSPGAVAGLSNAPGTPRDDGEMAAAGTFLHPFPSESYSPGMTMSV

Compound: Cc1nc(Nc2ncc(C(=O)Nc3c(C)cccc3Cl)s2)cc(N2CCN(CCO)CC2)n1 [dasatinib]
Experiment: log2 fold change of tryptic peptide abundance, ligand vs vehicle (limited proteolysis) (log2 ratio); higher = more trypsin-susceptible (destabilized)
Conditions: ligand concentration: 5 uM; sample: K562 cleared lysate

Target | log2 fold change
CHMP4A (peptide sequence: QEFLEQK, peptide start residue: 37) (UniProt Q9BY43) | 0.31
TSPYL1 (peptide sequence: GHEPQSFIR, peptide start residue: 360) (UniProt Q9H0U9) | -0.201
PHF20 (peptide sequence: SLEPEESPGKR, peptide start residue: 482) (UniProt Q9BVI0) | -0.508
CINP (peptide sequence: DKIELDSSSPASKENEEK, peptide start residue: 62) (UniProt Q9BW66) | 0.634
ELOVL1 (peptide sequence: ALQQNGAPGIAK, peptide start residue: 264) (UniProt Q9BW60) | 0.035
UniProt Q9H0E7 (peptide sequence: RFRWSGR, peptide start residue: 555) | -0.0445
UniProt Q9BXS1 (peptide sequence: NCHLNENIEK, peptide start residue: 38) | -0.0217
UniProt Q9C0B7 (peptide sequence: LCGQLLSER, peptide start residue: 304) | 0.321
UniProt Q9BVS4 (peptide sequence: EMQADDELLHPLGPDDK, peptide start residue: 308) | 0.305
NLN (peptide sequence: VTAFLDDLSQK, peptide start residue: 315) (UniProt Q9BYT8) | 0.26
MND1 (peptide sequence: GLSAEEKR, peptide start residue: 6) (UniProt Q9BWT6) | -0.341
DPCD (peptide sequence: ESNANPIFMR, peptide start residue: 86) (UniProt Q9BVM2) | -0.147
SENP6 (peptide sequence: KHCIAVIDSNPGQEESDPR, peptide start residue: 831) (UniProt Q9GZR1) | 0.591
UniProt Q9BXC9 (peptide sequence: AELASPLNEADGHR, peptide start residue: 361) | 0.629
UniProt Q9H0W8 (peptide sequence: SESGHSQPGLYGIERR, peptide start residue: 2) | -0.394
NXF2 (peptide sequence: DVHKDQQLR, peptide start residue: 69) (UniProt Q9GZY0) | 0.221
OSBPL6 (peptide sequence: YGDYYVWNK, peptide start residue: 720) (UniProt Q9BZF3) | -0.696
RBCK1 (peptide sequence: MLEDLGFK, peptide start residue: 151) (UniProt Q9BYM8) | 0.0464
UniProt Q9BZF2 (peptide sequence: YFVLEDGILHYATTR, peptide start residue: 69) | 0.461
KATNAL1 (peptide sequence: LLFEMAR, peptide start residue: 292) (UniProt Q9BW62) | -0.121
RBM38 (peptide sequence: KANVNLAYLGAKPR, peptide start residue: 103) (UniProt Q9H0Z9) | 0.198
EIF2A (peptide sequence: DGTLFAWGNGEK, peptide start residue: 47) (UniProt Q9BY44) | -0.627
UniProt Q9H0A9 (peptide sequence: VVGEIAFQLDRR, peptide start residue: 195) | -0.126
QRSL1 (peptide sequence: LLDQGALLMGK, peptide start residue: 108) (UniProt Q9H0R6) | 0.199
POLDIP3 (peptide sequence: INVVNNHQAK, peptide start residue: 169) (UniProt Q9BY77) | -0.297
INO80B (peptide sequence: AAAPAPMVR, peptide start residue: 266) (UniProt Q9C086) | -0.203
RAB11FIP5 (peptide sequence: TYSDEANQMR, peptide start residue: 305) (UniProt Q9BXF6) | -0.163
SSBP4 (peptide sequence: EACEHSGEAK, peptide start residue: 79) (UniProt Q9BWG4) | 0.389
ANKRD30A (peptide sequence: KFCVLKK, peptide start residue: 995) (UniProt Q9BXX3) | -0.054

Taken from above:
log2 fold change, UniProt Q9BVS4 (peptide sequence: EMQADDELLHPLGPDDK, peptide start residue: 308) is entered as 0.305
log2 fold change, SENP6 (peptide sequence: KHCIAVIDSNPGQEESDPR, peptide start residue: 831) (UniProt Q9GZR1) is entered as 0.591
